Assay [1] has as its target Flag-SMAD7 (UniProt O15105). Nature of the assay: co-IP; HEK293T cells co-transfected with Flag-SMAD7 and Myc-RNF12 wild-type or mutant plasmids; lysates 48 h post-transfection; anti-FLAG immunoprecipitation, anti-Myc western blotting. For orientation: Immunoblotting shows a protein as a band on a membrane.
Assay [2] addresses endogenous SMAD7 (human (endogenous; cells not named, all cell lines of the paper are human)) (UniProt O15105). The experiment in a line: co-IP; endogenous RNF12 and SMAD7; cells with or without the AKT inhibitor MK2206; cells and precipitating antibody not given.

Amino acid sequences for entries named in this document (tags omitted).
UniProt O15105: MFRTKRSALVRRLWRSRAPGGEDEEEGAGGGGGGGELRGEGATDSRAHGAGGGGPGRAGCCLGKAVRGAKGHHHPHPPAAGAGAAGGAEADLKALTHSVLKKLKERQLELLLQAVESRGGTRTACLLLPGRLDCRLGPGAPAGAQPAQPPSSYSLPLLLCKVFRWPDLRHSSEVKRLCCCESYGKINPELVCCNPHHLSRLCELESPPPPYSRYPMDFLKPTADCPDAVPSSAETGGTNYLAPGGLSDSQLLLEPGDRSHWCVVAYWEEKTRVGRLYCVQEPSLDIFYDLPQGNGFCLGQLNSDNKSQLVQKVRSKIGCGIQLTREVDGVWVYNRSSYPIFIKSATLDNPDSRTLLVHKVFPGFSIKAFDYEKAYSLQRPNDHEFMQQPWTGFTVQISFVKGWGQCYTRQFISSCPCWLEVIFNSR

Residue numbers refer to the chain shown, from its start. Names and notes keep the numbering of the source. No constants are given. Whether binding was seen depends on the method and setting. In cells and extracts the contact can be indirect. Some results given as binding are weak or reduced against the parent protein; the word gives no strength. For part of these data: Tags and fused reporters may be left off the sequences shown.

B1: Myc-RNF12 wild-type (protein, UniProt Q9NVW2 1-624)
chain: MENSDSNDKGSGDQSAAQRRSQMDRLDREEAFYQFVNNLSEEDYRLMRDNNLLGTPGESTEEELLRRLQQIKEGPPPQNSDENRGGDSSDDVSNGDSIIDWLNSVRQTGNTTRSGQRGNQSWRAVSRTNPNSGDFRFSLEINVNRNNGSQNSENENEPSARRSSGENVENNSQRQVENPRSESTSARPSRSERNSTEALTEVPPTRGQRRARSRSPDHRRTRARAERSRSPLHPMSEIPRRSHHSISSQTFEHPLVNETEGSSRTRHHVTLRQQISGPELLSRGLFAASGTRNASQGAGSSDTAASGESTGSGQRPPTIVLDLQVRRVRPGEYRQRDSIASRTRSRSQTPNNTVTYESERGGFRRTFSRSERAGVRTYVSTIRIPIRRILNTGLSETTSVAIQTMLRQIMTGFGELSYFMYSDSDSEPTGSVSNRNMERAESRSGRGGSGGGSSSGSSSSSSSSSSSSSSSSSSSSPSSSSGGESSETSSDLFEGSNEGSSSSGSSGARREGRHRAPVTFDESGSLPFLSLAQFFLLNEDDDDQPRGLTKEQIDNLAMRSFGENDALKTCSVCITEYTEGNKLRKLPCSHEYHVHCIDRWLSENSTCPICRRAVLASGNRESVV
Consider B1, for which, in assay [1], the binding result is “binds”.

B2: endogenous RNF12 (protein, UniProt Q9NVW2 1-624)
chain: B1 chain
With B2, the binding entry in assay [2] is “binds”.

B3: Myc-RNF12 S347A/T349A (protein, UniProt Q9NVW2 1-624)
chain: B1 chain with S347A, T349A
For the molecule B3, the binding entry in assay [1] is on record as “binds”.
